Data on one molecule can be found in patent US20250145696A1 (BIOVERATIV USA, published 2025).

This test concerns the target T1, human C1s (human, UniProt P09871 16-688).
T1 sequence: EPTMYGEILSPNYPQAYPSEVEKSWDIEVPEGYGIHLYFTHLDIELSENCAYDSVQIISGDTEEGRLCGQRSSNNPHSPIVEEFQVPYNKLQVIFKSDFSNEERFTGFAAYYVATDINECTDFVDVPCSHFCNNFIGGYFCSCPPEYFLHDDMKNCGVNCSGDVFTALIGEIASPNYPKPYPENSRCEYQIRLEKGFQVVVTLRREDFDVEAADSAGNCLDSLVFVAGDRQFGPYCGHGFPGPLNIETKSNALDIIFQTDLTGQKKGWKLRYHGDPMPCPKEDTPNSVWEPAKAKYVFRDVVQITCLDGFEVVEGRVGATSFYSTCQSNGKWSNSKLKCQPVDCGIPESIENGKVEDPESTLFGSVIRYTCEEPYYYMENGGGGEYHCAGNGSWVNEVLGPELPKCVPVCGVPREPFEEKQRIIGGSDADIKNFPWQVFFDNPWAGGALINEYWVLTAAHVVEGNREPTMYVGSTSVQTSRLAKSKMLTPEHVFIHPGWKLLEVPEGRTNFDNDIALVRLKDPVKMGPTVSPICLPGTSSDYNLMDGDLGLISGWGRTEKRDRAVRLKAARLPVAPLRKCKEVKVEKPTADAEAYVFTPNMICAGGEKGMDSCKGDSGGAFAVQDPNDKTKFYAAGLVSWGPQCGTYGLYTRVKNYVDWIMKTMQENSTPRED
As to the kind of experiment: direct binding ELISA for serum BIVV009: C1s-coated plates, goat anti-human HRP secondary antibody, TMB.

No constants are given. Whether binding was seen depends on the method and setting. Some entries that bind do so weakly or less than the wild type.

B1: BIVV009 (antibody, human IgG4 S228P, kappa, V domains shown)
VH: EVQLVESGGGLVKPGGSLRLSCAASGFTFSNYAMSWVRQAPGKGLEWVATISSGGSHTYYLDSVKGRFTISRDNSKNTLYLQMNSLRAEDTALYYCARLFTGYAMDYWGQGTLVTVSS
VL: QIVLTQSPATLSLSPGERATMSCTASSSVSSSYLHWYQQKPGKAPKLWIYSTSNLASGVPSRFSGSGSGTDYTLTISSLQPEDFATYYCHQYYRLPPITFGQGTKLEIKR
B1: the binding result is “binds”.
